Our source for the binding values is article PMC5443842, “The Effect of Two Amino acid Residue Substitutions via RNA Editing on Dark-operative Protochlorophyllide Oxidoreductase in the Black Pine Chloroplasts” (Scientific Reports, 2017).

By UniProt entry, the sequences of proteins in these tests, tags left out.
UniProt Q04607: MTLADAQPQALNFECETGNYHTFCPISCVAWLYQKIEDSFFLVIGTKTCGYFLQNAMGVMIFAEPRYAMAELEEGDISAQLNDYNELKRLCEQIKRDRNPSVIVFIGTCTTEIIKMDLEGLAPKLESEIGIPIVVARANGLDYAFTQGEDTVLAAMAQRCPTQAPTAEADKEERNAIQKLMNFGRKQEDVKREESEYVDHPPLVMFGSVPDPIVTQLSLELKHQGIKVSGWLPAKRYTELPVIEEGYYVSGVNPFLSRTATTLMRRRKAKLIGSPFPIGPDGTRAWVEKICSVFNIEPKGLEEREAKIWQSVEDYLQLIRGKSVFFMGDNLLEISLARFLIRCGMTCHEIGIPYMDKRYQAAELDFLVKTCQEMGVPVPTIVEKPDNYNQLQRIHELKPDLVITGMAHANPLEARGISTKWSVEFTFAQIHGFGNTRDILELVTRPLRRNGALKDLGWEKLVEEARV

Positions count from the first letter of the chain named. Names and notes keep the numbering of the source. No constants are given. Whether binding was seen depends on the method and setting. Binding seen in cells or lysates may run through a third protein. Some results given as binding are weak or reduced against the parent protein; the word gives no strength.

For experiment [1], the target named is Strep-ChlN (ChlN subunit of the NB protein of dark-operative protochlorophyllide oxidoreductase) from Leptolyngbya boryana, expressed in L. boryana YFB14 (Leptolyngbya boryana) (UniProt Q04607). Put plainly: pull-down; ChlB variants co-expressed with Strep-ChlN in L. boryana YFB14; soluble extracts on a Strep-Tactin column in an anaerobic chamber; affinity-purified proteins detected by Western blot with anti-ChlN and anti-ChlB antisera. On the technique in general: A western blot detects proteins with antibodies after separation by electrophoresis.

Experiment [2] concerns the target Strep-ChlN from Leptolyngbya boryana, expressed in E. coli (Leptolyngbya boryana) (UniProt Q04607). In words: pull-down; ChlB variants co-expressed with Strep-ChlN in E. coli; soluble fractions on a Strep-Tactin column in an anaerobic chamber; affinity-purified proteins on SDS-PAGE stained with Coomassie Brilliant Blue, yields quantitated.

B1: wild-type ChlB from Leptolyngbya boryana, expressed in E. coli (natural protein, UniProt P95463 1-508, looked up)
chain: MKLAYWMYAGPAHIGTLRIASSFKNVHAIMHAPLGDDYFNVMRSMLERERDYTPVTTSVVDRHVLARGSQEKVVDNITRKDAEEHPDLIVLTPTCTSSILQEDLQNFVERAQLEAKGDVMLADVNHYRVNELQAADRTLQQIVQFYIAKARKQGNLVTEKTEKPSVNIFGMTTLGFHNNHDATELKKLMSDLGIEVNAIVPAGASVHELKSLPRAWFNLVPYRETGLLAAEFLQQEFNMPYVDITPIGIVETARCIRKIQQVINAQGANVDYEPFIDQQTRFVSQAAWFSRSIDCQNLTGKKAVVFGDNTHAAALTKILAREMGIHVLLAGTYCKYDEAWFREQVSEYCDDVLVSDDNGQIADAIARLEPAAIFGTQMERHVGKRLDIPCGVIAAPIHIQNFPVGYKPFVGYEGSNQIVDLIYNSFTLGMEDHLLEIFGGHDTKEVITKSVSADSDLNWSKDGLAELNRIPGFVRGKVKRNTEKFARDRNITQITAEVLYAAKEAVGA
notes: ChlB, subunit of DPOR (NB protein), Leptolyngbya boryana; also called WT ChlB; WT control; source: E. coli (pHANB2), in soluble fraction
B1: the binding result in experiment [1] was “binds”.

B2: ChlB_R (W216R, pre-edited mimic variant of L. boryana ChlB), expressed in L. boryana YFB14 (YFB14/NB2_R) (protein, UniProt P95463 1-508)
chain: B1 chain with W216R
B2: the binding result in experiment [1] is listed as “binds”.

B3: ChlB_PR (L209P and W216R variant of L. boryana ChlB), expressed in E. coli (protein, UniProt P95463 1-508)
chain: B1 chain with L209P, W216R
Consider B3, for which the binding entry in experiment [2] is “no binding”.

B4: ChlB_PR (L209P and W216R, doubly pre-edited mimic variant of L. boryana ChlB), expressed in L. boryana YFB14 (YFB14/NB2_PR) (protein, UniProt P95463 1-508)
chain: B1 chain with L209P, W216R
For B4, in experiment [1], the binding result is recorded as “no binding”.
